# Assay results reported in PubChem BioAssay AID1347423 (Functional Genomics Laboratory (NCATS/FGL), 2020).
# Out of some 52,000 sequences screened, about 210 (0.4%) were called active.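 The calls were made as follows: active = gene whose silencing raises cell survival under the drug, median off-target-corrected z-score across its silencing RNAs 2 or more; inactive = the rest.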 Some of the results follow.
# Test: Resistance to Poly (ADP-Ribose) Polymerase inhibitor: Gene Identification via Genome-wide siRNA Screen
# Conditions: mouse BRCA2 R2336H ES cells, olaparib, CellTiter-Glo viability; stronger effect = higher value
# Summary of the method: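 Mouse BRCA2 R2336H ES cells were reverse-transfected with siRNA (20 nM final), treated at 48 h with 500 nM olaparib, and read by CellTiter-Glo after 72 h. Scores: MAD-based z per siRNA, median per gene, seed off-target correction.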
row,Sequence,z-score
1,CCAUGGUCCUUGUCGUCAUTT against Kir3dl1,inactive: 2.36
2,GGCCUGUAAAAACUAUUGGTT against Mcpt4,inactive: -0.339
3,GGGCAUGAGAAAUCCACAGTT against Psx2,inactive: 0.121
4,GGAGCAAUCUGUUAAACUATT against B130052G07Rik,inactive: -0.7
5,GGUGGUUGAAGAAAUGGCUTT against Timm8a,inactive: 0.481
6,GCACAUUGGCAUUGUGUAUTT against Pdxk,inactive: 1.38
7,GCCCUUAACAGAAAAACUATT against Hmgcl,inactive: 0.453
8,GGACUGAUUGUUUUAUGCUTT against Gdap10,inactive: 0.496
9,GGAAAAACGUGGUGAACUATT against Zfhx1b,inactive: -0.407
10,GGACUUGGUGGUAAUCGACTT against A530089I17Rik,inactive: -1.07
11,GGAGCUACCUCUGGAUACATT against 4930538K18Rik,inactive: 1.2
12,GCCAAUUGAGUCGUCUAUCTT against Rps6ka1,inactive: -0.981
13,CGAGUUCCACAGUGAAAUATT against Cyp2c70,inactive: -0.426
14,GCGGUGCUGUUUUCCUUAUTT against Dpagt1,inactive: 0.952
15,GCAUCCUUGACCGAUACUATT against Psmb2,inactive: -3.34
16,GGAAUACAAAUUCAAGAUCTT against AF119384,inactive: 0.952
17,CCAGCUUUCAUUAACUUUATT against Ppp1r10,inactive: 0.108
18,GCAACCAUUUAAGAAGACCTT against Tnfrsf9,inactive: -0.205
19,GGUGAUGAAAAGAAUUGCATT against Pitrm1,inactive: -0.479
20,GCGUAUCAAGAAUUUGUCCTT against Mtus1,inactive: 1.88
21,CCUGAGAAAACUUCUUACUTT against Maged1,inactive: -0.318
22,GGCGGAUACUUGAUCGAAATT against Sec6l1,inactive: 0.113
23,GCAGGUUUACCAGUUUUUCTT against Lmo6,inactive: 0.389
24,GGAAAGUCACUCCUUAUAUTT against 5830483C08Rik,inactive: -0.893
25,CCAAAAAGAGCGAUUACCCTT against Shc1,inactive: 2.4
26,GGAAAAAAACCGCUAUGUATT against Ptpra,inactive: 0.294

row,Sequence,z-score
1,GGGAAGAUUUUUCUGAUCUTT against Kcnk13,inactive: 0.351
2,CCCUUUAUUAUUCCACUGUTT against Olfr530,inactive: -1.09
3,GGAACAACUUUCAUCUCACTT against Anxa10,inactive: -0.888
4,GGGAACAUGUGGAAGUAUGTT against 2410091C18Rik,inactive: -1.17
5,GGUGAAAGCAGCCAUUAAATT against Akr1a4,inactive: -1.05
6,GCCUGGUCUCACUAUGUAGTT against Hpvc2,inactive: 0.728
7,GGCAAAAAGUCAUUGCCAATT against Slc26a9,inactive: -0.775
8,GGGUGCUGAAAUGAAGCAUTT against G430090F17Rik,inactive: -0.427
9,GGAAAAGAAGAGGAUGGAGTT against Vpreb1,inactive: -0.713
10,GCUUCAGACGUAAUUUACUTT against Morc,inactive: 0.334
11,UCUGCGCACUAAAUGCAUCTT against Olfr46,inactive: -0.406
12,CGAAGGAUUCUUUUGUACUTT against Mib1,inactive: 1.85
13,GCCAUAGCCAAUGAAUAUGTT against 2810405J04Rik,inactive: 0.464
14,GGAAUUUUAUCCUGUAUGCTT against D4Ertd89e,inactive: 0.37
15,GGCGUAUUCUGGUAUCCAGTT against Cugbp1,inactive: 1.35
16,GCAAAGAUAACAGUAUGUUTT against Grinl1a,inactive: 0.651
17,GGAAAUAGAGAAGAAAUUGTT against Nelf,inactive: 0.688
18,GGACAACUCAAUUCUAAAATT against 4921522P10Rik,inactive: 0.276
19,CCGCCAAAGAUUUUAACCCTT against 1810055E12Rik,inactive: 0.809
20,GCUUGAUGGACAGUGACGATT against Dhrs3,inactive: 1.13
21,GGAACUGCAUCUGCACUAATT against Olfr683,inactive: 1.07
22,GGCAUUCAUGACAAUGGCUTT against Rab1b,inactive: 3.73
23,GGAUGAUGAAAACAAAGAATT against Skp1a,inactive: -0.359
24,CCACGCUCUCAAGGUAUAGTT against Cyp2d22,inactive: -0.175
25,CCCGAAUCUCAGCGUAGAATT against MGC5739,inactive: 0.777
26,CUAUCUGACCAUAAUGAAATT against Olfr1248,inactive: 0.231

# Part of the list above, set out differently:
row	Sequence	z-score
12	GCCAAUUGAGUCGUCUAUCTT against Rps6ka1	inactive: -0.981
13	CGAGUUCCACAGUGAAAUATT against Cyp2c70	inactive: -0.426
14	GCGGUGCUGUUUUCCUUAUTT against Dpagt1	inactive: 0.952
15	GCAUCCUUGACCGAUACUATT against Psmb2	inactive: -3.34

# Carrying on:

row,Sequence,z-score
1,GCUGUUCUAAUUCAUAAACTT against A230072I16Rik,inactive: 0.29
2,GGCACCUAUCACAUCUAUCTT against Tex21,inactive: -1.37
3,CGAGUGUAAUGUGGUGGAATT against Npm3,inactive: -0.74
4,GGUACGAAGGAAAAUUUACTT against 2810407A14Rik,inactive: 1.59
5,GCUCGACCAAAAAACAACCTT against Emilin2,inactive: 0.471
6,GCUCAAAGGACCUCUGAGCTT against Slc29a2,inactive: 0.486
7,CCAAUUCACUUAGGAGCUGTT against Psma4,inactive: -3.66
8,GGUGCUCUCAGGAAAGUUGTT against Olfr1157,inactive: -0.759
9,GGGUCAUCCAAAUGGUUUGTT against Grm6,inactive: 1.44
10,CCGUUCACAAGAAUUACACTT against Grb2,inactive: -0.0623
11,GCACUGUGAAUUUGUCAUUTT against Umps,inactive: -0.00503
12,GGAAACAGAAUGGAGUAAUTT against Rev1l,inactive: 0.0758
13,GGUGUCAGCUUACCAUUCATT against 1810015M01Rik,inactive: 1.26
14,CGGAUUCACAAGAACACCUTT against 4732496O08Rik,inactive: 2.3
15,GGUCGUAAAAAUUGAAAUCTT against Lhcgr,inactive: 0.189
16,GGGUUCUAGGUUGUUUAUGTT against 4932409I22Rik,inactive: 0.485
17,GGCCAAGAUGACCAUCUCUTT against Cspg4,inactive: -0.996
18,GGUUCAAGAAGUUUUGCUCTT against Tnfrsf9,inactive: 0.165
19,GGGCUGGAGUCUGAUACAUTT against Rbm5,inactive: -1.41
20,GGCAGAUCUAGGAUAGAAGTT against Fbxo44,inactive: -0.253
21,CCCACUUUCUUUGAUAACUTT against Bcl2l11,inactive: 0.467
22,GGUCACUAGUGACAAAUGUTT against Fmo4,inactive: 0.801
23,GGGUUUAUAAUUGGGAUGUTT against Vbp1,inactive: 0.413
24,GGUGGAGAAGGCAUGAAGATT against Amn,inactive: 0.338
25,GUACUUCACACCAGUUACATT against Olfr308,inactive: 0.12
26,CCAGCUUGUUACUAAGUAATT against Mgat3,inactive: -0.486

row,Sequence,z-score
1,GCACUGCAUAUUCCGCACUTT against Nubp2,inactive: -1.03
2,GGUAAAAAGGGAUCACUCUTT against Igfbp7,inactive: -0.151
3,GGGUCUGCCGUCAUCCAUATT against Acp6,inactive: 1.48
4,GGCCCAGAACAGAAAACUCTT against 5930406N14Rik,inactive: -0.395
5,GGCGAGCAUCGCUAUUGACTT against 2700088M22Rik,inactive: 0.155
6,GGUGCUCAGGAGGGAAUCUTT against LOC382137,inactive: 1.85
7,CCUGUCAAUGAAACCAAGCTT against 2810437L13Rik,inactive: 0.0972
8,GGAAUACCUUGGAUGGCUATT against Nfe2l1,inactive: 0.766
9,GGAUGAUGCUCGUUCUCAGTT against 4932422E22Rik,inactive: 1.55
10,CGUAACACUGCCUUUGAAUTT against Ube4b,inactive: -0.534
11,GGCUCAGGCAUUGUAACCATT against Dnm3,inactive: -1.33
12,GGCAGAGAAUUUUUUGUGGTT against Ddah1,inactive: 0.637
13,CCGAUGAUCAGAGAAACAGTT against Prkar2b,inactive: -1.75
14,CGCCCAUGAUGAAUCCUUUTT against Olfr1416,inactive: 1.19
15,CCCUUGCCUCAAAGAUCUUTT against 1700018C11Rik,inactive: 0.0885
16,CGAUCUUGACCAAAACAAUTT against Fbxo30,inactive: -0.421
17,GGGAAAGAAAACAAAGGAATT against Cdgap,inactive: 0.236
18,GGAAGACGUAAUAAAGUUATT against BC026978,inactive: 0.539
19,GGUCUUGGAGGAUCCCAAUTT against 1700025D03Rik,inactive: 0.607
20,GCUACGAGCAGUUUUUAUUTT against Ptgs1,inactive: 0.753
21,GCCACGGAAAAUAGGGAAGTT against Irf7,inactive: 0.648
22,GCAAGUUGGCGUGAAGAUATT against Col9a1,inactive: -0.00285
23,GGAGAUAAUAAUGAAGUCGTT against 1810029G24Rik,inactive: 0.247
24,GGAAUAUGUUUAGCAUCUGTT against AW556797,inactive: 0.876
25,CGUGGAAAAUGAUCAACACTT against LOC434320,inactive: -0.281
26,CCCGAAAGACAUGUAUUCGTT against Mrps18b,inactive: 1.22
